Data reported in PubChem BioAssay AID2685 (National Center for Advancing Translational Sciences (NCATS), 2010).
The list shows a part of the results. The main result of the screen is listed elsewhere. These columns were measured beside it and carry no call. The list favours compounds with an active or inconclusive main result. The note in brackets gives the kind of curve behind each potency; many fits are weak.

Experiment: qHTS Assay for Lipid Storage Modulators in Drosophila S3 Cells;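 as to cell number change: cells counted by Cell Tracker Red CMTPX staining in the red channel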
Settings: BODIPY lipid droplet fluorescence, 18-24 h; for cell number change: measured here: cell count max response, cells fed with added oleic acid
Outline: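 Laser-scanning cytometry quantifies lipid droplet accumulation (500–530 nm total intensity; droplet/cell object ratio) in oleic acid-fed (400 uM added) Drosophila S3 cells treated with a concentration series. 20 uM Triacsin C defined 100% inhibition.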

[1] = measured here: cell number channel AC50, cells fed with added oleic acid
[2] = measured here: lipid fluorescence (Fed channel) AC50, cells fed with added oleic acid

| SMILES | AC50 [1] | AC50 [2] | cell number change [%] |
| --- | --- | --- | --- |
| O=C(N/N=C/C1CCCCC1)c1ccccc1-n1cccc1 | 3.26 µM [rising, single point] | 3.26 µM [rising, partial curve] | – |
| Cc1ccc(NS(=O)(=O)c2cccc3cccnc23)cc1Cl | – | 29.1 µM [falling, single point] | -16.3 |
| Cc1ccc(NC(=O)COC(=O)c2ccc3c(c2)OCO3)cc1S(=O)(=O)N1CCCCC1 | 1.3 µM [falling, full curve] | 6.51 µM [rising, single point] | – |
| NC(=S)N/N=C/c1c[nH]c2ccccc12 | – | 4.11 µM [rising, full curve] | 10.7 |
| CCCCNC(=O)c1cccc(S(=O)(=O)N2CC3(C)CC2CC(C)(C)C3)c1 (stereo unspecified) | – | 13 µM [falling, partial curve, poor fit] | -13.6 |
| CC1CCN(C2CC(=O)N(c3ccccc3)C2=O)CC1 (stereo unspecified) | – | 6.51 µM [falling, single point] | 1.62 |
| CC(C)n1c(SCC(=O)c2ccc3c(c2)OCCO3)nc2c1c(=O)n(C)c(=O)n2C | 2.06 µM [rising, full curve] | – | 32.2 |
| CC(=O)c1cccc(NC(=O)CN2C(=O)C(=O)N(Cc3ccco3)C2=O)c1 | – | 4.11 µM [rising, full curve] | 3.18 |
| Cc1nn(C)cc1CNC(=O)c1cnn2c(C(F)F)cc(C3CC3)nc12 | – | 2.59 µM [rising, full curve] | -28.1 |
| N#C/C(=C\c1ccc(N2CCOCC2)o1)C(=O)N1CCOCC1 | 2.31 µM [falling, partial curve] | 6.51 µM [rising, single point] | – |
| C=CCn1c(SCC(=O)NC2CCS(=O)(=O)C2)nnc1-c1ccncc1 (stereo unspecified) | 0.731 µM [falling, single point] | – | -9.77 |
| O=S(=O)(c1ccc(-c2cnc(C3CC3)o2)cc1)N1CCN(c2ccccc2)CC1 | – | 32.6 µM [falling, single point] | -22.6 |
| CC(=O)c1ccc(NC(=O)CN2C(=O)COc3ccc(Cl)cc32)cc1 | – | 1.46 µM [rising, full curve, poor fit] | 24.6 |
| COc1cccc(C2CCCN2Cc2nc(CCC(C)C)no2)c1 (stereo unspecified) | 5.8 µM [rising, partial curve] | – | 34.6 |
| Cn1c(=O)c2c(SCC(=O)N3CCCC3)nc(CC(C)(C)C)nc2n(C)c1=O | 2.31 µM [falling, partial curve, poor fit] | – | -18.7 |
| O=C(Nc1ccc([N+](=O)[O-])cc1)C(Cc1ccccc1)N1C(=O)c2cccc3cccc(c23)C1=O (stereo unspecified) | 29.1 µM [rising, single point] | 0.651 µM [falling, full curve] | 75.7 |
| Cc1ccc(-c2cn(-c3ccccc3)c(SCC(N)=O)n2)cc1C | – | 5.8 µM [rising, full curve] | 19.9 |
| O=[N+]([O-])c1cccc(C2=NCCC(c3ccccc3)O2)c1 (stereo unspecified) | – | 14.6 µM [rising, partial curve] | 4.62 |
| COc1ccc(CNC(=O)c2cc(-c3cccs3)on2)cc1 | – | 5.8 µM [rising, partial curve] | 9.97 |
| CCn1c2ccccc2c2cc(NC(=O)c3cccc(OC)c3)ccc21 | 1.3 µM [rising, full curve] | 1.64 µM [rising, full curve] | 58.4 |

| SMILES | AC50 [1] | AC50 [2] | cell number change [%] |
| --- | --- | --- | --- |
| CC(=O)OC1OCCOC1NC(=S)Nc1ccc(C)cc1 (stereo unspecified) | – | 6.51 µM [rising, single point] | -0.916 |
| CN(C)S(=O)(=O)c1ccc(C(=O)OCc2ccc(C#N)cc2)cc1 | – | 29.1 µM [falling, single point] | 4.74 |
| Cc1ccc(NC(=O)C2CCCNC2=O)nc1 (stereo unspecified) | – | 6.51 µM [falling, single point] | -6.98 |
| O=C(CCc1ccc(S(=O)(=O)N2CCOCC2)cc1)N/N=C/c1ccc(O)c(O)c1O | – | 1.16 µM [rising, full curve, poor fit] | 5.64 |
| CCCS(=O)(=O)c1nc(S(=O)(=O)c2ccc(C)cc2)c(N2CCCC(C)C2)s1 (stereo unspecified) | – | 8.2 µM [falling, partial curve] | – |
| CC(C)(Oc1ccc(Cl)cc1)C(=O)NC1CC1 | – | 23.1 µM [falling, partial curve, poor fit] | 2.3 |
| O=C1NCCCC1C(=O)N/N=C/c1ccc([N+](=O)[O-])cc1 (stereo unspecified) | – | 6.51 µM [falling, single point] | 28.4 |
| COc1ccc(N(C(=O)c2snc(C(N)=O)c2N)C(C(=O)NC2CCCC2)c2ccc(C)o2)c(OC)c1 (stereo unspecified) | – | 6.51 µM [rising, single point] | 3.04 |
| CN(CC(=O)Nc1ccc(F)cc1)C(=O)CN1C(=O)c2cccc([N+](=O)[O-])c2C1=O | – | 29.1 µM [rising, single point] | -0.877 |
| c1cc[n+](CCC[n+]2ccccc2)cc1 | – | 14.6 µM [rising, partial curve] | 17.1 |
| CCC(=O)Nc1c(C)nn(-c2ccc(C)c(C)c2)c1C | – | 29.1 µM [rising, single point] | 21 |
| Cn1c(C(O)c2ccc(Br)cc2)nc(Cl)c1Cl (stereo unspecified) | – | – | -24.9 |
| O=C(CCl)NCCCCCCCCCNC(=O)CCl | – | 4.61 µM [falling, full curve] | -17.3 |
| O=C(CCCn1cncn1)N1CCCC(N2CCN(c3ccc(F)cc3)CC2)C1 (stereo unspecified) | – | – | 8.8 |
| NCCCSC1=NCCCN1 | – | 29.1 µM [falling, single point] | -8.86 |
| Cc1c(C(=O)NC2CC2)oc2ccc(S(=O)(=O)N3CCCCCC3)cc12 | 0.731 µM [falling, full curve, poor fit] | 0.731 µM [rising, full curve] | -30 |
| CCOc1ccccc1N1CCN(Cc2cnc(-c3ccccc3)[nH]2)CC1 | – | 7.31 µM [falling, partial curve] | -24.9 |
| Cc1ccc(CNS(=O)(=O)NCc2ccc(Cl)cc2)cc1 | – | – | 2.45 |
| O=c1[nH]c2ccccc2n1CCCN1CCN(C(c2ccccc2)c2ccccc2)CC1 | – | 0.00731 µM [rising, full curve, poor fit] | -0.308 |
| COC(=O)c1ccccc1NCC(=O)c1ccc(OC)cc1 | – | 6.51 µM [falling, single point] | -12.4 |

| SMILES | AC50 [1] | AC50 [2] | cell number change [%] |
| --- | --- | --- | --- |
| Cc1cc(NC(=O)Nc2cc(F)ccc2F)no1 | – | 0.231 µM [rising, full curve, poor fit] | -10.9 |
| CCCN(CCC)S(=O)(=O)c1ccc(C(=O)Nc2cc3oc4ccccc4c3cc2OC)cc1 | 0.461 µM [rising, partial curve, poor fit] | 16.4 µM [falling, partial curve] | -8.67 |
| Cc1ccc(NC(=O)C2CCCN2c2nn3c(=O)cc(C)nc3s2)cc1 (stereo unspecified) | – | – | 17.3 |
| O=C(Nc1ccccc1-c1nc2ccccc2s1)c1ccc(Br)o1 | 0.164 µM [rising, full curve, poor fit] | 0.651 µM [rising, full curve] | 87.4 |
| CCOC(=O)c1oc2cc(O)cc(C)c2c(=O)c1-c1cscn1 | – | 5.8 µM [rising, single point] | -15.2 |
| COC(=O)c1[nH]c2cccc(C)c2c1NC(=O)CN1CCN(C(=O)c2ccco2)CC1 | – | 0.116 µM [rising, full curve] | -9.16 |
| Cc1ccc(CS(=O)(=O)CCC(=O)NCCC(C)C)cc1 | – | – | -13.7 |
| COc1cc(NC(=O)CCCNC(=O)Cn2cnc3sc4c(c3c2=O)CCCC4)cc(OC)c1OC | – | 6.51 µM [rising, single point] | -6.41 |
| C/C=C/c1ccc(OCCOc2ccc(C=O)cc2)c(OC)c1 | – | 9.2 µM [rising, partial curve, poor fit] | 4.6 |
| CC1(C)Oc2ccc(C(=O)NNC(=O)Nc3ccccc3)cc2NC1=O | – | – | 2.56 |
| O=S(=O)(c1ccccc1)c1ccccc1/C=N\O | 0.184 µM [falling, full curve, poor fit] | 29.1 µM [falling, single point] | -33.5 |
| CCc1nn(CC(=O)Nc2cc(C)ccc2C)c(=N)s1 | 2.06 µM [rising, full curve] | 2.59 µM [rising, partial curve] | 60 |
| CN(C)c1ccc(NC(=O)C2CCCN(S(=O)(=O)c3ccccc3)C2)cc1 (stereo unspecified) | 0.517 µM [falling, single point] | – | -13.4 |
| CCC(=O)Nc1ccc(C(=O)NNC(=O)COc2cc(C)ccc2C)cc1 | 4.11 µM [rising, full curve] | 1.84 µM [rising, partial curve] | 39.1 |
| Cc1ccc2c(c1)cc(CN(Cc1ccco1)C(=O)N1CCOCC1)c1nnnn12 | – | 20.6 µM [falling, single point] | -28.9 |
| CCCCn1ccnc1C(=O)c1cc(S(=O)(=O)N2CCOCC2)ccc1C | 7.31 µM [rising, partial curve] | 6.51 µM [rising, single point] | 68 |
| CCOc1cc(-c2noc(CCC(=O)NC3CCCCC3)n2)ccc1OC | – | 6.51 µM [falling, single point] | -24.8 |
| COc1ccccc1COC(=O)CN1C(=O)NC2(CCCCC2C)C1=O (stereo unspecified) | – | – | 4.82 |
| COc1ccc(-c2nc(CS(=O)(=O)CC(=O)Nc3cccc(C(C)=O)c3)c(C)o2)cc1 | 7.31 µM [falling, partial curve] | – | -13.3 |
| N#Cc1c(NC(=S)NC(=O)C2CCCC2)sc2c1CCCCC2 | – | 32.6 µM [falling, single point] | -17.5 |

A run of entries of the results above, for reference:

| SMILES | AC50 [1] | AC50 [2] | cell number change [%] |
| --- | --- | --- | --- |
| Cc1cc(NC(=O)Nc2cc(F)ccc2F)no1 | – | 0.231 µM [rising, full curve, poor fit] | -10.9 |
| CCCN(CCC)S(=O)(=O)c1ccc(C(=O)Nc2cc3oc4ccccc4c3cc2OC)cc1 | 0.461 µM [rising, partial curve, poor fit] | 16.4 µM [falling, partial curve] | -8.67 |
| Cc1ccc(NC(=O)C2CCCN2c2nn3c(=O)cc(C)nc3s2)cc1 (stereo unspecified) | – | – | 17.3 |
| O=C(Nc1ccccc1-c1nc2ccccc2s1)c1ccc(Br)o1 | 0.164 µM [rising, full curve, poor fit] | 0.651 µM [rising, full curve] | 87.4 |
| CCOC(=O)c1oc2cc(O)cc(C)c2c(=O)c1-c1cscn1 | – | 5.8 µM [rising, single point] | -15.2 |
